The other results are listed elsewhere or left out.
Compound: CC1Cc2ccccc2N1C(=O)C1CCCN(C1)C(=O)CCl (mixture of isomers) [TRIM25 ligand 11 (diastereomer mixture)]
Assay: probe-labelled cysteine peptide fold change vs DMSO (competition) (log2 fold change); higher = less target engagement (more negative = stronger competition)
Details: THP-1, incubation time: 4 h
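Note: competitive chemoproteomic profiling in live THP-1 cells with an iodoacetamide desthiobiotin (IA-DTB) probe, comparing probe-labelled peptide intensities in compound-treated cells against DMSO-treated controls.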

Amino acid sequences for entries named in this document (tags omitted). A change or cut given only in a name is not applied to a line headed by its entry.
UniProt P24666: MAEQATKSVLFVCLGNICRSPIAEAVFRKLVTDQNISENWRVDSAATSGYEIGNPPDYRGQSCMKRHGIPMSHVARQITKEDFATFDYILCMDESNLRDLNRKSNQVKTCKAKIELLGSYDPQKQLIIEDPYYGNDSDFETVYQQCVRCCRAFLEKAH
UniProt O14672: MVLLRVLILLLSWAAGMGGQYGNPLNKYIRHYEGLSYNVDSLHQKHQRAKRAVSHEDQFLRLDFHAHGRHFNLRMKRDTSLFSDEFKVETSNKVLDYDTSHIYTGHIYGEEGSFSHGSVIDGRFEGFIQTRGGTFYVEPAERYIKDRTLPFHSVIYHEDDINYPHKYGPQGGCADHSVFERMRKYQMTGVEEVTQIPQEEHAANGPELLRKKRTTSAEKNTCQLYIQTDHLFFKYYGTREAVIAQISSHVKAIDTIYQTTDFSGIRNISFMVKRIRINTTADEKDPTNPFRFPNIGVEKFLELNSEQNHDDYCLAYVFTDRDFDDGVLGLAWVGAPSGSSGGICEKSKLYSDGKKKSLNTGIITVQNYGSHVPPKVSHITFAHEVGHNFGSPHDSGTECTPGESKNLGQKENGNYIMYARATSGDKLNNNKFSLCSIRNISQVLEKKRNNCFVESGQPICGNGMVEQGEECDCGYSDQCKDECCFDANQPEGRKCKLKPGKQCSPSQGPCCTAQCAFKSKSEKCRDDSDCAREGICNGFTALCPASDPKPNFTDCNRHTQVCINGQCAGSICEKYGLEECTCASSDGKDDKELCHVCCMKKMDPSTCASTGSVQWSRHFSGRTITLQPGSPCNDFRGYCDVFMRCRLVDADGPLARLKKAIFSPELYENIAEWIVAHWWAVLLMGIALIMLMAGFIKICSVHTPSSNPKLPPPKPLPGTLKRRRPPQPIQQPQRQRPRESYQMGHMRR
UniProt O15254: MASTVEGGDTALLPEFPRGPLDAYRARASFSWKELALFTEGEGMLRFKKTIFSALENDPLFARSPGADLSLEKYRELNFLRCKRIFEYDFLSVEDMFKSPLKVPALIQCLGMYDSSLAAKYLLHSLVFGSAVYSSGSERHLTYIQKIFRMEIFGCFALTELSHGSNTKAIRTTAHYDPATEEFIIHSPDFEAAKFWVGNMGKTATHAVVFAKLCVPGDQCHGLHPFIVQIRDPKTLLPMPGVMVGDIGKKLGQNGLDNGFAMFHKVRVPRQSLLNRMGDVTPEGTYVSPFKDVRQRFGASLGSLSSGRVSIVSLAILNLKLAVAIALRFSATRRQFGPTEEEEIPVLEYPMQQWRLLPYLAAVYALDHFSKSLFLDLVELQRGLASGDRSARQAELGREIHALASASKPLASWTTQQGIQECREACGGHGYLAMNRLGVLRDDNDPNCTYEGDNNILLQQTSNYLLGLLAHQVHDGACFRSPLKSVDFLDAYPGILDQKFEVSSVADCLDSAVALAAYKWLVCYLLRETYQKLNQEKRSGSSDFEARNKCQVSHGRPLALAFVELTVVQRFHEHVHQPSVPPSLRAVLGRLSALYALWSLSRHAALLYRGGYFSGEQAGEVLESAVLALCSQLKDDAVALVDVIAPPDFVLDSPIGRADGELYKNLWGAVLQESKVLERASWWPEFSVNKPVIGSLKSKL
UniProt Q9H2P0: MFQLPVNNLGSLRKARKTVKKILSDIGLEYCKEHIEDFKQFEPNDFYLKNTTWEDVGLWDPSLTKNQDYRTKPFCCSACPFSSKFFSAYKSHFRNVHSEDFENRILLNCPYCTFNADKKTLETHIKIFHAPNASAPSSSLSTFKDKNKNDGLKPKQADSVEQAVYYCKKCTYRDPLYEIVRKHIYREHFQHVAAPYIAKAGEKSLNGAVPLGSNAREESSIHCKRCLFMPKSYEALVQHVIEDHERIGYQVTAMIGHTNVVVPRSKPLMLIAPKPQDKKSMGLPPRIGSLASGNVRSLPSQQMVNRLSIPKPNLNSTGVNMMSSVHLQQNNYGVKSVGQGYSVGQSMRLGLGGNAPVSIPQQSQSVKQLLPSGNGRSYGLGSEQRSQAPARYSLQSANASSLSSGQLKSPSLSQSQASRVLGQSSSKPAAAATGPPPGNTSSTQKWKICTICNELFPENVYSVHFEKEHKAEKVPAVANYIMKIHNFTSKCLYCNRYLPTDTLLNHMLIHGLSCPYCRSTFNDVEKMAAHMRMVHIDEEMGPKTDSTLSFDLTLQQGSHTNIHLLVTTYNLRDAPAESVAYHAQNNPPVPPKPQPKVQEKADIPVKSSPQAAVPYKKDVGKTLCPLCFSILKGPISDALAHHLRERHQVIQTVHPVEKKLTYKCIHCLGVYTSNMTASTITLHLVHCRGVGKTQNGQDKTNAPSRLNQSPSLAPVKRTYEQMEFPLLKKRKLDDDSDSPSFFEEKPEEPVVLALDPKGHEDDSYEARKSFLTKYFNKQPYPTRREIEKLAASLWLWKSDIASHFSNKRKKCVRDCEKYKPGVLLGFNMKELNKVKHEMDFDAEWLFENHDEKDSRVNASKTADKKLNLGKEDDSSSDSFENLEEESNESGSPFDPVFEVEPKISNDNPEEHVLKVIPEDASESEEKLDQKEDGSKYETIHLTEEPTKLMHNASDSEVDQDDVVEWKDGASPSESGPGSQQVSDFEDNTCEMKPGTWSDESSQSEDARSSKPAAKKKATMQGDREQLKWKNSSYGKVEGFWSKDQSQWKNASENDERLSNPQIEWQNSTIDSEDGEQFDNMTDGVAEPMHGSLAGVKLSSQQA
UniProt Q96SZ5, whole entry, looked up: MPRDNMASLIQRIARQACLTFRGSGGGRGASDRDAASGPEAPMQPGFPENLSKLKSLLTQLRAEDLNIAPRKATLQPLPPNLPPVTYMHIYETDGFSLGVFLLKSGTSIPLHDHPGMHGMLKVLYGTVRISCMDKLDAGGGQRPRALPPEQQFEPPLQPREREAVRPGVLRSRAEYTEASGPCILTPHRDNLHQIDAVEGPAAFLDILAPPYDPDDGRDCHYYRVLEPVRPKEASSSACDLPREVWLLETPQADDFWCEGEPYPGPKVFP
UniProt O60488: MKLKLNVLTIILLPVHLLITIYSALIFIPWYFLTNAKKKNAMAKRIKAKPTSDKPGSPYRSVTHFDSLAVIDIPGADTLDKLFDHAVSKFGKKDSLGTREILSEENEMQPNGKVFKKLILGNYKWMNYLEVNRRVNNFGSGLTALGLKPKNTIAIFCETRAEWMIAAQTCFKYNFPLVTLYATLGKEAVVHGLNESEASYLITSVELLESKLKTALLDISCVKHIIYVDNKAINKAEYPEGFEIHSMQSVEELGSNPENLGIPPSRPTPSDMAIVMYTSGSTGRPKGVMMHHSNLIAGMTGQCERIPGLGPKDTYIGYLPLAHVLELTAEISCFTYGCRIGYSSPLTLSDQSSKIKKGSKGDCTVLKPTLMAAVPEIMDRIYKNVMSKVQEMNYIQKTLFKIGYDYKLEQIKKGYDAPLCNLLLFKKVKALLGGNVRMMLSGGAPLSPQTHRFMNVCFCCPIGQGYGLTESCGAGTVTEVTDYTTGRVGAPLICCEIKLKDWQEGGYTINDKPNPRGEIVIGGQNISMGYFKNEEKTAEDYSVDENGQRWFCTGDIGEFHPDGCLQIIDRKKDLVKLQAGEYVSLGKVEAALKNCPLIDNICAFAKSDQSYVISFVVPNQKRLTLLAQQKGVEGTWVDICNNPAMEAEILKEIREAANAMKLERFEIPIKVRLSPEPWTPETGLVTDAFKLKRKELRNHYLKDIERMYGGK
UniProt Q9HAR2: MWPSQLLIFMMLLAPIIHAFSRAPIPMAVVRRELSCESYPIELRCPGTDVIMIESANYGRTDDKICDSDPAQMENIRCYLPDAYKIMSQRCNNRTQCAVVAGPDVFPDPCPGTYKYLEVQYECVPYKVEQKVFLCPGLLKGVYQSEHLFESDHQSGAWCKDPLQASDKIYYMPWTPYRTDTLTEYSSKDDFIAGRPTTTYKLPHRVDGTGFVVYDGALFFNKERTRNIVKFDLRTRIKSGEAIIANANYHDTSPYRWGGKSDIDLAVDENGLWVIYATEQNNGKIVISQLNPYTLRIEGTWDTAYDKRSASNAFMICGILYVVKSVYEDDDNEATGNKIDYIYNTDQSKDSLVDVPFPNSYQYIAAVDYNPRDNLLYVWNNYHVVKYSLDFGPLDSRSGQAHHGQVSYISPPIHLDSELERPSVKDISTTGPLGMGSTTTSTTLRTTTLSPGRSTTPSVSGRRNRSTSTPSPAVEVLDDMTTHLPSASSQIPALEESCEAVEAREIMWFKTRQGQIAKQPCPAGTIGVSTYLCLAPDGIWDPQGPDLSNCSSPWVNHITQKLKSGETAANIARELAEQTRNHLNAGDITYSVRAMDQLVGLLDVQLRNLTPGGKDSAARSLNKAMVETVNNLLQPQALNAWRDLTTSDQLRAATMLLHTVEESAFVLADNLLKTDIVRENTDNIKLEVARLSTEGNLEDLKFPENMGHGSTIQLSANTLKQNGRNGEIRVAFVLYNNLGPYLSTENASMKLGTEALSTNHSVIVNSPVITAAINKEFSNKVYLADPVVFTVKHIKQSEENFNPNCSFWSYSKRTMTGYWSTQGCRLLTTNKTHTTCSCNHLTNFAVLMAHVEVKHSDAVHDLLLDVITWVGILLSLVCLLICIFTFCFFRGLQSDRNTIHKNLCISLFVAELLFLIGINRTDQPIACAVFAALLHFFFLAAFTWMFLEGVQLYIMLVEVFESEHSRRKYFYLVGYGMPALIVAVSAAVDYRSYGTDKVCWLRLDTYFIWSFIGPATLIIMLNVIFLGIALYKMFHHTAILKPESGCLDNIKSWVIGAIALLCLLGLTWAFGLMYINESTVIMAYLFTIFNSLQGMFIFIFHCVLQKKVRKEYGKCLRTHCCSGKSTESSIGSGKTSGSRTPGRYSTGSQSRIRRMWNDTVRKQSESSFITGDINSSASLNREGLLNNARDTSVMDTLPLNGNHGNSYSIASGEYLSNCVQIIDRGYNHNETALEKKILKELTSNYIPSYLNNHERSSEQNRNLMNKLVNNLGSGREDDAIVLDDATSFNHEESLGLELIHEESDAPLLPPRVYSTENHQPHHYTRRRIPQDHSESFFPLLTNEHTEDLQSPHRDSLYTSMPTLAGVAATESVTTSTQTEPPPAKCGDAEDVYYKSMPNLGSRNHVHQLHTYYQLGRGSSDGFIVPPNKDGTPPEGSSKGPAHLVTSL
UniProt O60503: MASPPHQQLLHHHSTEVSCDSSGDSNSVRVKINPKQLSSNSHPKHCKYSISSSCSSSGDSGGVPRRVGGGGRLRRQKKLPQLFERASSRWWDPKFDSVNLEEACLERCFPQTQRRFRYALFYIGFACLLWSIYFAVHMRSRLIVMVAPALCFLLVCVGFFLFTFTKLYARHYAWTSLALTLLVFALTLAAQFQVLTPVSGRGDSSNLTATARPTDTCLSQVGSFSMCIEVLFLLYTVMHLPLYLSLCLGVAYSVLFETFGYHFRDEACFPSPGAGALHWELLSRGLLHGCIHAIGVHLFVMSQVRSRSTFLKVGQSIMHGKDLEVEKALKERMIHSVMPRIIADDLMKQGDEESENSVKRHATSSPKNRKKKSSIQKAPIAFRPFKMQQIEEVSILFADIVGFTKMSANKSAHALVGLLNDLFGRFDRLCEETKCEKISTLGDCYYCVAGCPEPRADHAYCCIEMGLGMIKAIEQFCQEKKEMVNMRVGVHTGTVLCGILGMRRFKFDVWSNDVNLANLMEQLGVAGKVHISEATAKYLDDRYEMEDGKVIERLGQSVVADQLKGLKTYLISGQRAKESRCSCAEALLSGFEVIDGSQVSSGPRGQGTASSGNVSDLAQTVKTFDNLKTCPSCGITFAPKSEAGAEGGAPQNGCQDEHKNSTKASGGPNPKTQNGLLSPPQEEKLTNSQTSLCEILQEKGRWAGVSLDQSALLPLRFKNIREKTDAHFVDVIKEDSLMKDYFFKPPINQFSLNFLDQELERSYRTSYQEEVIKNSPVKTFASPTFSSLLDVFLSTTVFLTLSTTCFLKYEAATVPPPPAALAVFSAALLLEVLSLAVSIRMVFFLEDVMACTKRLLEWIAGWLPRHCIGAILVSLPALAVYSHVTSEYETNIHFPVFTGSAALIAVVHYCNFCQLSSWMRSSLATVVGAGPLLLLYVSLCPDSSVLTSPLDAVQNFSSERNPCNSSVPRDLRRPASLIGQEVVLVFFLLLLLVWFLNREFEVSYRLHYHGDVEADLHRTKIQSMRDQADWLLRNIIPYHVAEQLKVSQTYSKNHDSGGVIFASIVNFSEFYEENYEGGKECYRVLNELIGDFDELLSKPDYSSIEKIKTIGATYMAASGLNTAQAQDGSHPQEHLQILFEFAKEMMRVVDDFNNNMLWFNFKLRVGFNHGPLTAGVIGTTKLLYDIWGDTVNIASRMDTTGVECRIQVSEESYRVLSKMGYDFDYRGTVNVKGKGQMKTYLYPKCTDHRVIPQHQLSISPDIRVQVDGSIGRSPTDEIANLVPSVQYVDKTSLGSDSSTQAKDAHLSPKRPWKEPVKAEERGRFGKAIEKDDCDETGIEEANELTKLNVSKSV

Target | probe-labelled cysteine peptide fold change (10 µM) | probe-labelled cysteine peptide fold change (50 µM)
ACP1_P24666_146_QLIIEDPYYGNDSDFETVYQQCVR (UniProt P24666) | 0.102 | 0.0531
ADAM10_O14672_173_YGPQGGCADHSVFER (UniProt O14672) | 0.0909 | 0.0721
ACTR3_P61158_394_YAVWFGGSMLASTPEFYQVCHTK (UniProt P61158) | 0.0158 | 0.15
AFF4_Q9UHB7_338_EMTHSWPPPLTAIHTPCK (UniProt Q9UHB7) | -0.174 | -0.19
ADARB1_P78563_393_GLALNDCHAEIISR (UniProt P78563) | -0.0161 | -0.117
ACTN1_P12814_476+480_CQKICDQWDNLGALTQKRR (UniProt P12814) | 0.175 | -0.0015
ADRM1_Q16186_88_RVPQCPSGR (UniProt Q16186) | 0.0354 | 0.0908
ACOX3_O15254_220_LCVPGDQCHGLHPFIVQIRDPK (UniProt O15254) | -0.102 | -0.0601
ADNP2_Q6IQ32_220_CNANASSQDALMYHILTSDIHR (UniProt Q6IQ32) | 0.112 | -0.0224
ADNP_Q9H2P0_624+627_TLCPLCFSILK (UniProt Q9H2P0) | 0.00147 | 0.101
ACY1_Q03154_116_CVSIQYLEAVRR (UniProt Q03154) | -0.266 | -0.188
AFG3L2_Q9Y4W6_525_LASLTPGFSGADVANVCNEAALIAAR (UniProt Q9Y4W6) | -0.14 | -0.117
ACOT9_Q9Y305_128_ILEDLDSLGVLICYMHNK (UniProt Q9Y305) | 0.152 | 0.0684
ADCY3_O60266_479_CDYLEEK (UniProt O60266) | -0.0152 | -0.126
ADO_Q96SZ5_239_EASSSACDLPR (UniProt Q96SZ5) | -0.0846 | -0.257
AGA_P20933_179_YCGPYKPPGILK (UniProt P20933) | -0.0327 | -0.0937
ADO_Q96SZ5_183_AEYTEASGPCILTPHR (UniProt Q96SZ5) | -0.0417 | 0.00492
ADSL_P30566_99_HDVMAHVHTFGHCCPK (UniProt P30566) | -0.0906 | -0.0282
ACSS3_Q9H6R3_285_AQSHDCVPVLSEHPLYILYTSGTTGLPK (UniProt Q9H6R3) | 0.0567 | 0.122

Target | probe-labelled cysteine peptide fold change (10 µM) | probe-labelled cysteine peptide fold change (50 µM)
ACSL4_O60488_157_NTIAIFCETR (UniProt O60488) | 0.484 | 0.477
ADAM17_P78536_630_KGKPCTVGFCDMNGK (UniProt P78536) | -0.0882 | -0.186
ADAM10_O14672_632_TITLQPGSPCNDFR (UniProt O14672) | 0.0426 | 0.066
ACSL4_O60488_420_GYDAPLCNLLLFK (UniProt O60488) | -0.0473 | 0.0577
ACTN4_O43707_793_ACLISLGYDVENDR (UniProt O43707) | 0.207 | 0.213
ADGRL3_Q9HAR2_36_RELSCESYPIELR (UniProt Q9HAR2) | 0.0299 | -0.0901
ADAT3_Q96EY9_95_DAGSPHALEMLLCLAGPASGPR (UniProt Q96EY9) | 0.0916 | 0.139
ADCY9_O60503_1204_MDTTGVECR (UniProt O60503) | 0.0935 | -0.00952
ADAR_P55265_630_LGNSCEFR (UniProt P55265) | 0.0291 | 0.029
ACTG1_P63261_17_MEEEIAALVIDNGSGMCK (UniProt P63261) | 0.286 | -0.0679
AGGF1_Q8N302_307_AFSVEHTSCNEEENFANMK (UniProt Q8N302) | 0.149 | -0.0159
ACTR8_Q9H981_351_ETFCHLDQDISGLQDHEFQIR (UniProt Q9H981) | 0.282 | 0.258
ADK_P55263_140_AAEAHVDAHYYEQNEQPTGTCAACITGDNR (UniProt P55263) | 0.165 | 0.0322
ADNP_Q9H2P0_449_ICTICNELFPENVYSVHFEK (UniProt Q9H2P0) | -0.16 | -0.0416
ADAR_P55265_490_CSPYKK (UniProt P55265) | -0.0154 | -0.08
ADCY9_O60503_654_SEAGAEGGAPQNGCQDEHK (UniProt O60503) | -0.0519 | -0.0438
ADCY9_O60503_1333_AIEKDDCDETGIEEANELTK (UniProt O60503) | -0.326 | -0.107
ADAR_P55265_304_ICDYLFNVSDSSALNLAK (UniProt P55265) | -0.131 | -0.238
ADAR_P55265_519_NPISGLLEYAQFASQTCEFNMIEQSGPPHEPR (UniProt P55265) | -0.216 | -0.0215
